From PubChem BioAssay AID2685 (National Center for Advancing Translational Sciences (NCATS), 2010)
The list shows a part of the results. These are further read-outs of the screen, such as a control signal, another cell line or another target. No call is given for them. Most of these compounds were active or inconclusive in the main read-out, so they are no random draw. Potencies come from curve fits of mixed quality, noted in brackets.

Assay: qHTS Assay for Lipid Storage Modulators in Drosophila S3 Cells;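 on cell number change: cells counted by Cell Tracker Red CMTPX staining in the red channel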
Conditions: BODIPY lipid droplet fluorescence, 18-24 h; for cell number change: measured here: cell count max response, cells fed with added oleic acid
Method in brief: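 Laser-scanning cytometry quantifies lipid droplet accumulation (500–530 nm total intensity; droplet/cell object ratio) in oleic acid-fed (400 uM added) Drosophila S3 cells treated with a concentration series. 20 uM Triacsin C defined 100% inhibition.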

[1] = measured here: lipid fluorescence (Fed channel) AC50, cells fed with added oleic acid
[2] = measured here: cell number channel AC50, cells fed with added oleic acid

SMILES	cell number change [%]	AC50 [1]	AC50 [2]
CCn1c(COc2cccc(OC)c2)nnc1SCC(=O)NCC1CCCO1 (stereo not given)	12.8	20.6 µM [rising, single point]	–
COCCNCC(=O)NC12CC3CC(CC(C3)C1)C2	18.9	3.26 µM [rising, partial curve, poor fit]	–
CCCN1C(=O)/C(=C/c2c(N3CCNC(=O)C3CC(=O)OCC)nc3c(C)cccn3c2=O)SC1=S (stereo not given)	–	–	6.51 µM [falling, partial curve, poor fit]
CC(NC(=O)COc1ncnc2cc([N+](=O)[O-])ccc12)c1ccccc1 (stereo not given)	-15.1	16.4 µM [rising, single point]	0.326 µM [falling, partial curve, poor fit]
COc1cc2c(cc1OC)CN(CC(=O)Nc1ccc(S(=O)(=O)N(C)C)cc1)CC2	47.4	0.146 µM [rising, full curve]	0.231 µM [rising, full curve]
Cn1c(=O)[nH]c(=O)c2c1nc(N/N=C/c1ccncc1)n2Cc1ccc(F)cc1	0.121	2.59 µM [rising, full curve]	–
O=C(O)c1ccc(N=Nc2c(O)[nH]c3ccccc23)cc1	-13.5	9.2 µM [falling, single point]	–
O=C(Nc1ccc(Cl)cn1)C1CCN(S(=O)(=O)c2cccs2)CC1	-31.7	0.82 µM [falling, full curve, poor fit]	–
O=C(Nc1ccccc1)c1ccc(NC(=O)C2CC2)cc1	30.2	1.46 µM [rising, partial curve]	11.6 µM [rising, partial curve, poor fit]
Cc1nc(N(C)Cc2ccccc2)c2nnn(Cc3ccccc3)c2n1	–	0.58 µM [rising, single point]	–
Cc1cccc(NC(=O)Nc2cccnc2)c1C	19.9	3.26 µM [rising, partial curve]	–
COC(=O)c1[nH]c2ccc(C)cc2c1NC(=O)C(C)N1CCN(C2CCCCC2)CC1 (stereo not given)	-0.0646	4.61 µM [falling, partial curve]	–
CCN(CC(=O)Nc1c(F)cccc1F)C(=O)/C=C/c1ccc(Br)s1	–	29.1 µM [falling, single point]	0.517 µM [falling, single point]
COc1ccc(Cc2nc3ccc(C(=O)NCc4ncc(C)[nH]4)cc3o2)cc1OC	–	0.116 µM [falling, partial curve, poor fit]	–
CCOC(=O)CCN1C(=O)c2ccccc2Sc2ncccc21	-9.86	–	–
CCOc1ccc2nc(NC(=O)c3ccccn3)sc2c1	-28.3	18.4 µM [falling, partial curve]	–
CS(=O)(=O)N(CC(=O)Nc1ccccc1C(=O)NCc1ccccc1)c1ccc2c(c1)OCCO2	9.41	3.26 µM [rising, partial curve]	2.31 µM [rising, single point]
O=C(Nc1ccc(S(=O)(=O)NC2=NCCCCC2)cc1)c1ccc(Cl)cc1Cl	18	29.1 µM [rising, single point]	–

Random excerpt: 3 records from the list
SMILES	cell number change [%]	AC50 [1]	AC50 [2]
O=C(Nc1ccccc1)c1ccc(NC(=O)C2CC2)cc1	30.2	1.46 µM [rising, partial curve]	11.6 µM [rising, partial curve, poor fit]
Cc1nc(N(C)Cc2ccccc2)c2nnn(Cc3ccccc3)c2n1	–	0.58 µM [rising, single point]	–
O=C(Nc1ccc(S(=O)(=O)NC2=NCCCCC2)cc1)c1ccc(Cl)cc1Cl	18	29.1 µM [rising, single point]	–

(continued)

SMILES	cell number change [%]	AC50 [1]	AC50 [2]
Nc1nc(Nc2ccccc2F)nc(N2CCCC2)c1[N+](=O)[O-]	-2.7	–	–
CCCN(C(=O)c1cc(S(=O)(=O)N(C)c2ccc(OCC)cc2)ccc1C)C1CCS(=O)(=O)C1 (stereo not given)	-0.478	0.461 µM [falling, single point]	–
Cn1c(CCN2CCCCC2)nc2cc(NC(=O)Nc3ccccc3)ccc21	-5.5	3.26 µM [falling, partial curve]	–
COc1ccc(C2N=C(Nc3ccc(C)cc3)Nc3nc(C)cc(=O)n32)cc1 (stereo not given)	16.8	13 µM [rising, single point]	–
CCOC(=O)N1CCN(C(=O)Cc2ccc(Cl)cc2)CC1	6.22	0.58 µM [falling, partial curve, poor fit]	–
Cc1cc(=O)[nH]c(N/N=C/c2ccc(O)c(O)c2)n1	–	6.51 µM [rising, single point]	6.51 µM [rising, single point]
O=C(C1CCN(S(=O)(=O)N2CCC3(CC2)OCCO3)CC1)N1CCC(Cc2ccccc2)CC1	-31.4	29.1 µM [falling, single point]	23.1 µM [falling, single point]
CCOc1ccc(N2C(=O)CC(NCCNc3ccc(C(=O)c4cccs4)cc3)C2=O)cc1 (stereo not given)	-17.7	–	0.00461 µM [falling, full curve, poor fit]
CC1CCCCC1NS(=O)(=O)c1ccc(S(=O)(=O)N2CCN(CCC#N)CC2)cc1 (stereo not given)	–	6.51 µM [rising, single point]	–
CCOC(=O)c1sc(N/N=C/c2cccc(C)c2)nc1C	-41.7	29.1 µM [falling, single point]	23.1 µM [falling, single point]
CC(=O)Nc1ccc(OCc2ccc3c(c2)OCO3)cc1	-24.6	3.26 µM [rising, full curve]	–
CCOC(=O)CN(C(=O)CNC(=O)c1cccs1)C(C(=O)NC1CCCC1)c1cccnc1 (stereo not given)	1.45	–	–
COc1cc(-c2cc(C(=O)Nc3ccccc3N3CCOCC3)c3ccccc3n2)cc(OC)c1OC	–	0.517 µM [rising, partial curve]	0.00517 µM [rising, full curve, poor fit]
O=C1c2cccc3cccc(c23)N1Cc1cccc(F)c1	4.84	32.6 µM [falling, single point]	–
O=C(NCCc1c[nH]c2ccccc12)c1ccc([N+](=O)[O-])cc1	-13.7	3.66 µM [rising, single point]	–
CC1CC(C)CN(C(=O)CN2C(=O)NC(c3ccccc3)(c3ccccc3)C2=O)C1 (stereo not given)	-12.9	0.116 µM [falling, full curve, poor fit]	0.13 µM [falling, full curve, poor fit]
Cc1ccc(P(=O)(CC(=O)O)c2ccc(C)cc2)cc1	-1.21	4.61 µM [falling, partial curve]	–
